Here are results for 17 molecules from PubChem BioAssay (NCATS).

A short description of the assay: qHTS for identification of novel therapeutic agents for treatment of microphthalmiaassociated transcription factor (MiT) renal cell carcinoma (RCC) (AID 1963991). The following applies: CellTiter-Glo, 48 h; for z-score: stronger effect = lower value. In short, it runs like this:
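Viability of three TFE3-fusion renal carcinoma lines measured by CellTiter-Glo after 48 h treatment with each of 1912 compounds at 11 concentrations. Responses scaled between DMSO (100%) and empty wells (0%) before curve fitting.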
Background: In qHTS, concentration-response curves come from the screen itself.

The mark [1] stands for this setting: TFE3-RCC UOK109 viability, measured here: UOK109 Z-AUC.
The mark [2] stands for this setting: TFE3-RCC viability, measured here: UOK124 Z-AUC.
Setting [3] is: TFE3-RCC viability, measured here: UOK145 Z-AUC.
The mark [4] stands for this setting: TFE3-RCC viability, measured here: UOK145 cell viability.
The mark [5] stands for this setting: TFE3-RCC viability, measured here: UOK124 cell viability.

Each structure is given as a SMILES string. Some of the results follow. The main result of the screen is listed elsewhere. These columns were measured beside it and carry no call. Most of these compounds were active or inconclusive in the main read-out, so they are no random draw. Words in brackets tell the shape of the fitted curve; partial curves, single points and poor fits give uncertain potencies.

The AC50 is the concentration at which the activity in the assay is half-maximal. With `C[C@@H]1[C@@H](C(=O)C[C@H]2O[C@@H]3O[C@]4(C)CC[C@@H]5[C@H](C)CC[C@@H]([C@H]2C)[C@@]35OO4)O[C@@H]2O[C@]3(C)CC[C@H]4[C@H](C)CC[C@@H]1[C@@]24OO3`, the z-score is, setting by setting: under setting [1], 0.267; under setting [2], 0.0316; under setting [3], 0.607. Moreover, the half-maximal activity concentration (AC50) under setting [4] was 26.4 µM [falling, partial curve, poor fit].

The molecule `COC(=O)C1=CCCN(C)C1` came in with a z-score under setting [1] of 0.495, a z-score under setting [2] of 0.569 and a z-score under setting [3] of 0.506. In addition, the AC50 under setting [4] was 1.87 µM [falling, partial curve, poor fit].

For the molecule `C=C[C@@H]1CN2CCC1C[C@H]2[C@H](O)c1ccnc2ccccc12` (some centres undefined), the z-score runs as follows: under setting [1], 0.472; under setting [2], 0.168; under setting [3], -0.216. Moreover, the AC50 under setting [5] was 37.2 µM [falling, single point] and the AC50 under setting [4] is 29.6 µM [falling, single point].

As to `O=[N+]([O-])c1ncc[nH]1`, the z-score under setting [1] was 1.23, the z-score under setting [2] is -0.5 and the z-score under setting [3] amounted to 0.725. Moreover, under setting [5], the AC50 was 3.72 µM [falling, full curve, poor fit].

`O=C(N[C@H]1CN2CCC1CC2)c1ccc(Cl)cc1`: the z-score is, setting by setting: under setting [1], -0.153; under setting [2], 0.194; under setting [3], 0.286. Moreover, the AC50 under setting [4] is 8.33 µM [falling, full curve].

For `CC[C@H]1C=CC=CC[C@@H](C)[C@H](O)[C@@](C)(O)C(=O)[C@@H](C)[C@H](O)[C@@H](C)C(=O)[C@@H](C)[C@H](O)[C@@H](C)C=CC(=O)O[C@@H]2[C@@H](C)[C@H](CC1)O[C@]1(CC[C@H](C)[C@H](C[C@@H](C)O)O1)[C@H]2C`, the z-score reads like this: under setting [1], -1.16; under setting [2], -0.381; under setting [3], 0.182. The AC50 under setting [5] was 33.2 µM [falling, single point] and the AC50 under setting [4] is 29.6 µM [falling, single point].

For the molecule `C[C@]12Cc3cn[nH]c3C[C@@H]1CC[C@@H]1[C@H]2CC[C@@]2(C)[C@H]1CC[C@]2(C)O`, the z-score runs as follows: under setting [1], 0.565; under setting [2], 0.74; under setting [3], 2.01. The AC50 under setting [4] is 9.35 µM [falling, partial curve].

As for `COC1=C[C@@H]2[C@@H]3Cc4ccc(OC)c(O)c4[C@]2(CCN3C)CC1=O`, the z-score is 0.425 under setting [1], -2.72 under setting [2] and -0.156 under setting [3]. Further, under setting [4], the AC50 is 9.35 µM [falling, partial curve].

For `CCOC(=O)c1c(C(C#N)=CN)c2ccc(Cl)c(Cl)c2n1C`, the z-score by setting is: under setting [1], 0.508; under setting [2], 0.0935; under setting [3], 0.202. Further, the AC50 was 37.2 µM [falling, single point] under setting [5] and 37.2 µM [falling, partial curve, poor fit] under setting [4].

With `CC(C)(C)[C@]1(O)C[C@@H]2OC(=O)C[C@@]23C(=O)O[C@@H]2OC(=O)[C@H](O)C213` (some centres undefined), the z-score was 0.211 under setting [1], 0.532 under setting [2] and -2.5 under setting [3]. Besides, the half-maximal activity concentration (AC50) under setting [4] is 0.0209 µM [rising, full curve].

In the case of `CN1[C@H]2CC(O)C[C@H]1[C@H]1O[C@H]12` (some centres undefined), the z-score was 0.229 under setting [1], -0.106 under setting [2] and 0.217 under setting [3]. For the same molecule, the half-maximal activity concentration (AC50) by setting is: under setting [5], 16.6 µM [falling, partial curve]; under setting [4], 23.5 µM [falling, partial curve].

Regarding `CNC(=O)c1ccc(N2C(=S)N(c3ccc(C#N)c(C(F)(F)F)c3)C(=O)C23CCC3)cc1F`, the z-score by setting is: under setting [1], 0.111; under setting [2], 0.282; under setting [3], -0.017. For the same molecule, the AC50 under setting [4] is 14.8 µM [falling, partial curve].

For the molecule `CC(=Cc1csc(C)n1)[C@@H]1C[C@H]2O[C@]2(C)CCC[C@H](C)[C@@H](O)[C@@H](C)C(=O)C(C)(C)[C@@H](O)CC(=O)O1`, the z-score runs as follows: under setting [1], -2.63; under setting [2], -0.721; under setting [3], -1.94. The AC50 under setting [4] was 0.264 µM [rising, full curve, poor fit].

`O=P1(NCCCl)OCCCN1CCCl` (centres undefined) yielded a z-score under setting [1] of 0.568, a z-score under setting [2] of 1.16 and a z-score under setting [3] of -0.0687. The AC50 runs as follows: under setting [5], 23.5 µM [falling, single point]; under setting [4], 20.9 µM [falling, partial curve, poor fit].

For the molecule `C=C1C[C@H]2[C@H]3CCC(=O)[C@@]3(C)CC[C@@H]2[C@@]2(C)C=CC(=O)C=C12`, the z-score runs as follows: under setting [1], 0.744; under setting [2], 0.643; under setting [3], 0.305. In addition, the AC50 under setting [4] was 23.5 µM [falling, partial curve, poor fit].

Regarding `CC=C(C)C(=O)N[C@@H](c1ccccc1)[C@@H](O)C(=O)O[C@H]1C[C@@]2(O)[C@@H](OC(=O)c3ccccc3)[C@@H]3[C@]4(OC(C)=O)CO[C@@H]4C[C@H](O)[C@@]3(C)C(=O)[C@H](OC(C)=O)C(=C1C)C2(C)C`, the z-score is -1.49 under setting [1], -1.36 under setting [2] and -2.39 under setting [3]. For the same molecule, the AC50 under setting [4] was 0.0148 µM [falling, full curve].

As for `O=c1[nH]c2ccccc2n1C1CCN(Cc2ccc(-c3[nH]c4cc5ncnc5cc4nc3-c3ccccc3)cc2)CC1`, the z-score is, setting by setting: under setting [1], 0.115; under setting [2], 0.351; under setting [3], -0.407. For the same molecule, the AC50 by setting is: under setting [5], 9.35 µM [falling, partial curve]; under setting [4], 13.2 µM [falling, partial curve].
